{
  "sequences": {"note": "Protein sequences, listed by entry. Tags and fused reporters are not part of them.", "UniProt P53351, whole entry K108M": "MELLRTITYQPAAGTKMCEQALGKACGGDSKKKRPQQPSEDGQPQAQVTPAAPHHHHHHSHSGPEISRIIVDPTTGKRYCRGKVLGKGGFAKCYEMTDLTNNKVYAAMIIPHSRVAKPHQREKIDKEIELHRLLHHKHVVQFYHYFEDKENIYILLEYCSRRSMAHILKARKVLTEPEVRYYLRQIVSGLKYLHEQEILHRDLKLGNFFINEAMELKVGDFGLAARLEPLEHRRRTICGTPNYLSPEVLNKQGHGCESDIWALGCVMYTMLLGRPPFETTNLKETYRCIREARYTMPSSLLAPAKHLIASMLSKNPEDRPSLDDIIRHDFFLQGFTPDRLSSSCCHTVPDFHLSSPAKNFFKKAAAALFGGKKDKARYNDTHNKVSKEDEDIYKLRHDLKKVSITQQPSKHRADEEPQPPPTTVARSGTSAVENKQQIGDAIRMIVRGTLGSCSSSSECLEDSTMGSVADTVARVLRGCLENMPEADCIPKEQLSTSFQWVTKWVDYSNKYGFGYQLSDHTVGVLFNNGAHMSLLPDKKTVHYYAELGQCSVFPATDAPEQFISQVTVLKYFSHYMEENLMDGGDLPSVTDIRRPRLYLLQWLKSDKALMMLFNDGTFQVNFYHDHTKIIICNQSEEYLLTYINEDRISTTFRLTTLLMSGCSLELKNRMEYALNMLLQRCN"},
  "source": "patent US10266565B2",
  "about": "“Peptide mimetic ligands of polo-like kinase 1 polo box domain and methods of use” (The United States of America, as represented by the …, priority 2011, dated 2019)",
  "molecular_target": "T1, Plk2 (Mus musculus, UniProt P53351, K108M)",
  "T1 construct": "expressed in transfected cells",
  "test": "Peptide pull-down assay with bead-immobilized peptides, Plk2",
  "type": "binding",
  "protocol": "After incubating the cell lysates prepared in TBSN buffer {20 mM Tris-Cl (pH8.0), 150 mM NaCl, 0.5% Np-40, 5 mM EGTA, 1.5 mM EDTA, 20 mM p-nitrophenylphosphate and protease inhibitor cocktail (Roche, Nutley, N.J.)} with the bead-immobilized ligands for 2 h at 4° C., the ligand-associating proteins were precipitated, washed, boiled in sodium dodecyl sulfate (SDS) sample buffer, separated by 8% SDS-polyacrylamide gel electrophoresis (PAGE), and then subjected to immunoblotting analysis with anti-Flag antibody and the enhanced chemilunimescence (ECL) detection system (Pierce). The same membrane was also stained with Coomassies (CBB). Signal intensities were quantified using Image J program.\nTo investigate the binding specificity of p-T78 peptides to various Plks, Flag-Plk1 (K82M), Flag-Plk2(K108M)3 or Flag-Plk3(K52R) (a gift of Wei Dai, New York University School of Medicine, NY) construct was first transfected into HeLa cells. Cellular lysates were prepared as above, mixed, and then incubated in TBSN buffer with the immobilized peptides indicated.",
  "note": "Not every detail of the peptide structures is certain; ends, links or a residue may be inferred.",
  "data": [
    {"smiles": "CSCC[C@H](N)C(=O)N[C@@H](CCC(N)=O)C(=O)N[C@@H](CO)C(=O)N[C@H](C(=O)N1CCC[C@H]1C(=O)N[C@@H](CC(C)C)C(N)=O)[C@@H](C)OP(=O)(O)O", "note": "[MQSpTPL, reference compound]", "values": [
      {"measurement": "Plk2 binding / precipitation in pull-down, in words", "result": "precipitated Plk2 from the HeLa lysates expressing Plk2 alone"}
    ]}
  ]
}
